Experimental data: the supplement of paper PMC7666118
The other results are listed elsewhere or left out.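 How the source made its calls: active = dose-dependent thermal stabilisation significant by F-test of dose-response against flat model at 10% FDR; inactive = not significant.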

Protein sequences, listed by entry. Tags and fused reporters are not part of them. Lines headed by an entry give the natural chain unless they say otherwise; changes in a name come on top.
UniProt Q5T5C0: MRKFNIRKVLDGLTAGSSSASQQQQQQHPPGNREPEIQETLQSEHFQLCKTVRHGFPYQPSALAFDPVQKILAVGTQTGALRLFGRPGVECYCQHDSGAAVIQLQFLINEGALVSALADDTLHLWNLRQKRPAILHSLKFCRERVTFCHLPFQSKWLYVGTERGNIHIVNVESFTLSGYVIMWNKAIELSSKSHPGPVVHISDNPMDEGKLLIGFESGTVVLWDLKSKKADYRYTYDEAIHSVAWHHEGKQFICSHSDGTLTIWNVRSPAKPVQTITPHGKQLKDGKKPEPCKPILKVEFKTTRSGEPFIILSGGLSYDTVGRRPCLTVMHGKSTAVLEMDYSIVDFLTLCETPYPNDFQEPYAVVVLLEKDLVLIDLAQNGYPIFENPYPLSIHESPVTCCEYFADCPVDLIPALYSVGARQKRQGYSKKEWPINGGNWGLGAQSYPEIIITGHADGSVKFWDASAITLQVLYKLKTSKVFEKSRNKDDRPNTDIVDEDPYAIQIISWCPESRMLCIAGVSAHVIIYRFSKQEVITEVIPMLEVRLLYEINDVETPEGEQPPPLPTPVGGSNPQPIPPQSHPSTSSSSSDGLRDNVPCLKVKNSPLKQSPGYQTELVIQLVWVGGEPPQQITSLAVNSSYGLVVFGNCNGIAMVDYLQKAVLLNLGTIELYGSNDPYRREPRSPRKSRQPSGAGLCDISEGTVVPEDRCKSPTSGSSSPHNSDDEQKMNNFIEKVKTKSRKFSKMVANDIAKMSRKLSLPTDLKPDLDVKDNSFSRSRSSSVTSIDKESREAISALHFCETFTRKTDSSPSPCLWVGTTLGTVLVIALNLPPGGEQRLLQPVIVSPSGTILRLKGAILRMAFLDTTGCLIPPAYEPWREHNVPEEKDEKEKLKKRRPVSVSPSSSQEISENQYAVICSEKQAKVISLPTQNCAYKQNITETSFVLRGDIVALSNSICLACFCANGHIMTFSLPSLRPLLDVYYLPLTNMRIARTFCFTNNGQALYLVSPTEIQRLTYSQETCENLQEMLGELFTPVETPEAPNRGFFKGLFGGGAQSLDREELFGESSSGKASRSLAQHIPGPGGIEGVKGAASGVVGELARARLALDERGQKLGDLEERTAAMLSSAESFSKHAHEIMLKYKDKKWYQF
UniProt P31948, whole entry, looked up: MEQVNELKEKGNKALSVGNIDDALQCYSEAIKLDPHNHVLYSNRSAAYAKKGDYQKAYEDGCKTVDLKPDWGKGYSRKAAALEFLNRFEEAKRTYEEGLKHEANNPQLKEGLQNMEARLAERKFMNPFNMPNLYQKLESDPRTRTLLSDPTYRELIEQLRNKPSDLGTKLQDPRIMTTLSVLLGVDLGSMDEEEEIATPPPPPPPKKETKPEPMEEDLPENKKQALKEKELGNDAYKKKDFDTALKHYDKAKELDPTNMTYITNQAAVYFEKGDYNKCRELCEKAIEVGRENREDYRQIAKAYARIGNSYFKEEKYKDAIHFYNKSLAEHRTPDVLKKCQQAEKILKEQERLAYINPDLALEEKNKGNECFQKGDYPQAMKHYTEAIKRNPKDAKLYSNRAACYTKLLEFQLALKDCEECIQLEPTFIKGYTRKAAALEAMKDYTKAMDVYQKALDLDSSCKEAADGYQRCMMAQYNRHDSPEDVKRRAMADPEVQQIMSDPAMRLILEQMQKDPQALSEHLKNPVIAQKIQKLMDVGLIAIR
UniProt Q96DI7: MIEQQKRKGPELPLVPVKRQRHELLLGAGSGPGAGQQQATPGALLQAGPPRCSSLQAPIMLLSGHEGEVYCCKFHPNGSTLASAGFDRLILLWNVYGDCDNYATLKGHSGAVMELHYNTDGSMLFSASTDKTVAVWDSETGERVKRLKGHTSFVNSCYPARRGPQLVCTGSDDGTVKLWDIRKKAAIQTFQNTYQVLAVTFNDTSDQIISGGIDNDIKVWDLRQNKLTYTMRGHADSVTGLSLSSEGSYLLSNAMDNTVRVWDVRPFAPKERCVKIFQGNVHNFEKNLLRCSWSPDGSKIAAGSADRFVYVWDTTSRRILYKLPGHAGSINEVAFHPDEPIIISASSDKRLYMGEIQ
UniProt Q5VSL9: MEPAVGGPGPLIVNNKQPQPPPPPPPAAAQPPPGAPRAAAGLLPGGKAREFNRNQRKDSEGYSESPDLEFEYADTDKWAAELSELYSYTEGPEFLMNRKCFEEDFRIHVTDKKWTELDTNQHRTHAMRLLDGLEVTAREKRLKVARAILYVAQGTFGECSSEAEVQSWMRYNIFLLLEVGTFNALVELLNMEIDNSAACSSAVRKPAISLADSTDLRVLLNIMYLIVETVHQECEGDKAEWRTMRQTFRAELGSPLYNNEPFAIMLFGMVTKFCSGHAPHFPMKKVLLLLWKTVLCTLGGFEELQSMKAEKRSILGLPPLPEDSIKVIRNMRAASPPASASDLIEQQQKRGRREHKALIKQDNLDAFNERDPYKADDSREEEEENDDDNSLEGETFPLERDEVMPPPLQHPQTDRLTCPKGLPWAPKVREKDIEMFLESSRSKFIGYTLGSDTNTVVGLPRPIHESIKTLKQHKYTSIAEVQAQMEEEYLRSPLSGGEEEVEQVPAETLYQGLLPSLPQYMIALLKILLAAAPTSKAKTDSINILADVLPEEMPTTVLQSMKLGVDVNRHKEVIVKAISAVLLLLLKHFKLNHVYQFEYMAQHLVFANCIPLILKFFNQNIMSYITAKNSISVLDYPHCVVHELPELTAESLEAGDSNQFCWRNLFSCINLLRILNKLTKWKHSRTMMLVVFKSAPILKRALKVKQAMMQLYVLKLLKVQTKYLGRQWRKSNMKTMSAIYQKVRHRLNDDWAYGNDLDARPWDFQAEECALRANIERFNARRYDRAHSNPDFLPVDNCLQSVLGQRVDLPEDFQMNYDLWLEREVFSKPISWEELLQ
UniProt P05455: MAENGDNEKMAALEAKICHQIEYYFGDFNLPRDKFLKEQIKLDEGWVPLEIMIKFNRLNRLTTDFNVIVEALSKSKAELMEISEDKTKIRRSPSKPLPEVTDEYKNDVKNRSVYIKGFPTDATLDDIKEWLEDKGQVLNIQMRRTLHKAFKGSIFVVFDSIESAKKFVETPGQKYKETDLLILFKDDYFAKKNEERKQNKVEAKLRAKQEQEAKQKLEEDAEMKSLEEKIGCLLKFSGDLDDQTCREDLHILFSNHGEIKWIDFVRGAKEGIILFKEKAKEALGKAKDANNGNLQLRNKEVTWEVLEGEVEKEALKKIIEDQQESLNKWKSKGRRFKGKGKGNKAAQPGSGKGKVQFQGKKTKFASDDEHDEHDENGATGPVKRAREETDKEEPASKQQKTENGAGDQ
UniProt Q9H2G2: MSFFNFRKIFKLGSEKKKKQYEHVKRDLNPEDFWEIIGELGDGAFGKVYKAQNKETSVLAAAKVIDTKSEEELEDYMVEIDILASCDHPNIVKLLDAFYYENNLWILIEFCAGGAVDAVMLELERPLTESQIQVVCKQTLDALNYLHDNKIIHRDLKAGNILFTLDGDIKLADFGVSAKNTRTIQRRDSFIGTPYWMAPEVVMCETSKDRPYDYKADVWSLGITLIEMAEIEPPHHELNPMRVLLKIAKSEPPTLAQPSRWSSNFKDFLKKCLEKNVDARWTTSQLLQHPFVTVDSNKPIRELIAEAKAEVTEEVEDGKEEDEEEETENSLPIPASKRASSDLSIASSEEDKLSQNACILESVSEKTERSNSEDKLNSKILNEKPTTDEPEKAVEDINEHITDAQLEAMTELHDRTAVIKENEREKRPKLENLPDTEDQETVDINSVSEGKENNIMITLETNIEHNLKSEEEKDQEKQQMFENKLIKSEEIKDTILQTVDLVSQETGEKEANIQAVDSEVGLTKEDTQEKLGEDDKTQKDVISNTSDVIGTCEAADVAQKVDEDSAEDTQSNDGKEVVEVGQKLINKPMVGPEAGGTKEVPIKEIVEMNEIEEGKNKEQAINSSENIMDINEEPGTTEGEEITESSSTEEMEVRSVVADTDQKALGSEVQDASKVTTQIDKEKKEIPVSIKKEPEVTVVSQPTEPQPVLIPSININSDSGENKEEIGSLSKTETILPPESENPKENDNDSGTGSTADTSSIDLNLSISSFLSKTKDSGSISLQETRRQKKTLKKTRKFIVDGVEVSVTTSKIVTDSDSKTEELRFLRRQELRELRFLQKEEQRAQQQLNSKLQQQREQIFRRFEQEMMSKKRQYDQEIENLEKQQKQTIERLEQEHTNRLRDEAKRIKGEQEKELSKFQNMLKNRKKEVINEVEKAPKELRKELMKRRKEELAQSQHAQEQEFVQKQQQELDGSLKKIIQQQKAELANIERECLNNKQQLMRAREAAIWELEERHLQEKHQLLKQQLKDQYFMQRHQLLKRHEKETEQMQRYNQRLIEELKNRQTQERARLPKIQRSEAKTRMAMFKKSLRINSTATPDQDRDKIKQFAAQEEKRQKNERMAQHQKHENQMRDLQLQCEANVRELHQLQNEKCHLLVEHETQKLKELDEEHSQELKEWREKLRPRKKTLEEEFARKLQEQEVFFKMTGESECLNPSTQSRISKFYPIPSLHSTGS
UniProt Q9Y2Z0: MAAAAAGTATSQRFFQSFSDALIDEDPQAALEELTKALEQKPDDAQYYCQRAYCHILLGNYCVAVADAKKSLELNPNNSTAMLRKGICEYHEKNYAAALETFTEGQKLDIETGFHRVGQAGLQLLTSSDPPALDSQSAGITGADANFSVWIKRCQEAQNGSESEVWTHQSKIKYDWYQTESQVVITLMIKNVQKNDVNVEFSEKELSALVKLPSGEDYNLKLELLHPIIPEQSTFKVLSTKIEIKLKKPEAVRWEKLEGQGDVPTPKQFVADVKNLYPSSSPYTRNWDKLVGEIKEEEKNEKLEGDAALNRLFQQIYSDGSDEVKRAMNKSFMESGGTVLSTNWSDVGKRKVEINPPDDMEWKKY
UniProt Q12962, whole entry: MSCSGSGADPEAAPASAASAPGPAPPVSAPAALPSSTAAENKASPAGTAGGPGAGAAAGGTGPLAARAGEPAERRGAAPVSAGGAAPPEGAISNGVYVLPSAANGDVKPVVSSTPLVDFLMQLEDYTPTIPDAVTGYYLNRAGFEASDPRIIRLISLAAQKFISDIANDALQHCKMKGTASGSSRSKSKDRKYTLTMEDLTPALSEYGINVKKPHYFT
UniProt Q9P2W9: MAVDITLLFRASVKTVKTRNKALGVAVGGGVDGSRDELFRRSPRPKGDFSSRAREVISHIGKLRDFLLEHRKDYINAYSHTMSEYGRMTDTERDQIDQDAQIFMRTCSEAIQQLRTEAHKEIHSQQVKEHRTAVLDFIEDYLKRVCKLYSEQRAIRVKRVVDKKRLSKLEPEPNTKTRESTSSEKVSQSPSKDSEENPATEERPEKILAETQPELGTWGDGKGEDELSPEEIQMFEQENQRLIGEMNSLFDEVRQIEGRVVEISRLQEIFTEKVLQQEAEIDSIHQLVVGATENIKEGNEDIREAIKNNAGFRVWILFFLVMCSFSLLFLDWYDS
UniProt Q9NR46: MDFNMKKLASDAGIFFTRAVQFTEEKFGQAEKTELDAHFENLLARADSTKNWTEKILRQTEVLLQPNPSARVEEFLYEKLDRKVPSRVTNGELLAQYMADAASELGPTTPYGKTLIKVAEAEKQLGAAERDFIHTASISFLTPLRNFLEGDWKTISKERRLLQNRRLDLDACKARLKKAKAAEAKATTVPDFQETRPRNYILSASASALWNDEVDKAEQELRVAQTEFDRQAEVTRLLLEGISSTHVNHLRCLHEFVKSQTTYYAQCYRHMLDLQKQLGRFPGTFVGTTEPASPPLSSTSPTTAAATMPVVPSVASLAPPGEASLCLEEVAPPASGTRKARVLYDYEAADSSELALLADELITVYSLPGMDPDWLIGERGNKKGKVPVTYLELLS
UniProt Q7Z422: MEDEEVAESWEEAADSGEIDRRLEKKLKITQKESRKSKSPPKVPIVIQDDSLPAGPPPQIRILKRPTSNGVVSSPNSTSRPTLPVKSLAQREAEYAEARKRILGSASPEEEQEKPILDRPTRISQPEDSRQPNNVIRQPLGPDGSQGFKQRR
UniProt Q96GM5, whole entry: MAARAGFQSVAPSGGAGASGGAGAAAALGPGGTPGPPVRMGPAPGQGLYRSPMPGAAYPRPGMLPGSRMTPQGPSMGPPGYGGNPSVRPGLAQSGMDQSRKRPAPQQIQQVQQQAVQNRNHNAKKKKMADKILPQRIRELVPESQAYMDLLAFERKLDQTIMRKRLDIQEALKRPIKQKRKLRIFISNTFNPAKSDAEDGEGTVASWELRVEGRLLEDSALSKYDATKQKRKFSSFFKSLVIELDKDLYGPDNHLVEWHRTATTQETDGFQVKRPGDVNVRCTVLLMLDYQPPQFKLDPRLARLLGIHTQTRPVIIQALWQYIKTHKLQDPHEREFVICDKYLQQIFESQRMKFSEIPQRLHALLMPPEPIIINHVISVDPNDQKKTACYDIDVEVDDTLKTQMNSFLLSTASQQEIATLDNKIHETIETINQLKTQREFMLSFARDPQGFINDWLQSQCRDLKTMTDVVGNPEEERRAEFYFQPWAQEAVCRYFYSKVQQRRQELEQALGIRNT

What follows are targets tested with Nc1nc2c(ncn2[C@@H]2O[C@H](COP(=O)(O)OP(=O)(O)OP(=O)(O)O)[C@@H](O)[C@H]2O)c(=O)[nH]1 (assay: dose-dependent thermal stabilisation call (2D-TPP, DLPTP, 10% FDR) (binary (1 = stabilised)); higher = stabilised by the compound). Details: system: Jurkat gel-filtered lysate; concentration range 1-500 µM.

dose-dependent thermal stabilisation call, inactive:
STXBP5 (UniProt Q5T5C0) 0
SRFBP1 (UniProt Q8NEF9) 0
STIP1 (UniProt P31948) 0
STX8 (UniProt Q9UNK0) 0
SIPA1L1 (UniProt O43166) 0
SNRNP40 (UniProt Q96DI7) 0
SMC2 (UniProt O95347) 0
SLAIN2 (UniProt Q9P270) 0
STRIP1 (UniProt Q5VSL9) 0
SSB (UniProt P05455) 0
SLK (UniProt Q9H2G2) 0
SUGT1 (UniProt Q9Y2Z0) 0
TAF10 (UniProt Q12962) 0
SMG1 (UniProt Q96Q15) 0
SRRM2 (UniProt Q9UQ35) 0
STX18 (UniProt Q9P2W9) 0
STAMBP (UniProt O95630) 0
TACC1 (UniProt O75410) 0
SH3GLB2 (UniProt Q9NR46) 0
TADA3 (UniProt O75528) 0
SMC4 (UniProt Q9NTJ3) 0
SZRD1 (UniProt Q7Z422) 0
SUGP1 (UniProt Q8IWZ8) 0
SNRPB (UniProt P14678) 0
SMS (UniProt P52788) 0

Two records drawn at random from the list so far:
dose-dependent thermal stabilisation call, inactive:
STIP1 (UniProt P31948) 0
SSB (UniProt P05455) 0

Following part:

dose-dependent thermal stabilisation call, active:
SRM (UniProt P19623) 1
SMARCD1 (UniProt Q96GM5) 1
